No constants are given. Whether binding was seen depends on the method and setting. For some of these results: In cells and extracts the contact can be indirect. Some binding calls cover weakened binding; strength is not graded here. Where a sequence is shown, tags or fusion partners need not be part of it.

In assay [1] the target is T1, GAL4BD-SMXL5 fusion protein (Arabidopsis thaliana) (UniProt Q9LU73).
T1 sequence: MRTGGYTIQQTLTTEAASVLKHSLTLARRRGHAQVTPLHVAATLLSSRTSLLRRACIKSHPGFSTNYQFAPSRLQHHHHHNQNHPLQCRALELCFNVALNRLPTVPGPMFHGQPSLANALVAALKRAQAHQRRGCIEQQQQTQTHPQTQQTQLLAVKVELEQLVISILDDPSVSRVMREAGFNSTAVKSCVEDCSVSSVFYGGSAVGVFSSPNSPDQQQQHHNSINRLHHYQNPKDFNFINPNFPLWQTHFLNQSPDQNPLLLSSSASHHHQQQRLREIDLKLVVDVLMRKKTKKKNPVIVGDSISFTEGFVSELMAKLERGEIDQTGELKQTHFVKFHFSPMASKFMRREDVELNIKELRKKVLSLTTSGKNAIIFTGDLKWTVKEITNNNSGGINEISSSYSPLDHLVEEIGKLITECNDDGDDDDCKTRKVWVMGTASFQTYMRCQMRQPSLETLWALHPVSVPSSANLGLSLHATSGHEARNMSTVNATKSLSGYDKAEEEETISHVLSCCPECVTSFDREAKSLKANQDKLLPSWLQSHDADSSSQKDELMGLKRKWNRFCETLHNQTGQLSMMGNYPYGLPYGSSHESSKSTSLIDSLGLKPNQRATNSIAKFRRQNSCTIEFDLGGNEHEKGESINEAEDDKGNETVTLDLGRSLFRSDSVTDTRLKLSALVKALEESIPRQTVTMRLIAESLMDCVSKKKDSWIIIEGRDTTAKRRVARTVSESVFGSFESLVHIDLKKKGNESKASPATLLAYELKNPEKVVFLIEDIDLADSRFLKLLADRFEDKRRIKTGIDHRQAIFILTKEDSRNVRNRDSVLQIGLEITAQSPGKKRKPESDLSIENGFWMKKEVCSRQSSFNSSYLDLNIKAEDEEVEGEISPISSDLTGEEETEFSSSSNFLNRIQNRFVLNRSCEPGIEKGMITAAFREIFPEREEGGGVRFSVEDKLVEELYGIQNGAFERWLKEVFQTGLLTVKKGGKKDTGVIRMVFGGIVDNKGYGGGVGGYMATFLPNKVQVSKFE
Kind of assay: two-hybrid; Matchmaker Two-Hybrid System 3, yeast strain AH109; dilution series (OD600 1-0.001) grown for 3 days on SD -Leu/-Trp/-His/-Ade selecting for interaction; SMXL5 fused to GAL4 BD.

In assay [2] the target is T2, SMXL5-mCherry (Arabidopsis thaliana) (UniProt Q9LU73).
T2 sequence: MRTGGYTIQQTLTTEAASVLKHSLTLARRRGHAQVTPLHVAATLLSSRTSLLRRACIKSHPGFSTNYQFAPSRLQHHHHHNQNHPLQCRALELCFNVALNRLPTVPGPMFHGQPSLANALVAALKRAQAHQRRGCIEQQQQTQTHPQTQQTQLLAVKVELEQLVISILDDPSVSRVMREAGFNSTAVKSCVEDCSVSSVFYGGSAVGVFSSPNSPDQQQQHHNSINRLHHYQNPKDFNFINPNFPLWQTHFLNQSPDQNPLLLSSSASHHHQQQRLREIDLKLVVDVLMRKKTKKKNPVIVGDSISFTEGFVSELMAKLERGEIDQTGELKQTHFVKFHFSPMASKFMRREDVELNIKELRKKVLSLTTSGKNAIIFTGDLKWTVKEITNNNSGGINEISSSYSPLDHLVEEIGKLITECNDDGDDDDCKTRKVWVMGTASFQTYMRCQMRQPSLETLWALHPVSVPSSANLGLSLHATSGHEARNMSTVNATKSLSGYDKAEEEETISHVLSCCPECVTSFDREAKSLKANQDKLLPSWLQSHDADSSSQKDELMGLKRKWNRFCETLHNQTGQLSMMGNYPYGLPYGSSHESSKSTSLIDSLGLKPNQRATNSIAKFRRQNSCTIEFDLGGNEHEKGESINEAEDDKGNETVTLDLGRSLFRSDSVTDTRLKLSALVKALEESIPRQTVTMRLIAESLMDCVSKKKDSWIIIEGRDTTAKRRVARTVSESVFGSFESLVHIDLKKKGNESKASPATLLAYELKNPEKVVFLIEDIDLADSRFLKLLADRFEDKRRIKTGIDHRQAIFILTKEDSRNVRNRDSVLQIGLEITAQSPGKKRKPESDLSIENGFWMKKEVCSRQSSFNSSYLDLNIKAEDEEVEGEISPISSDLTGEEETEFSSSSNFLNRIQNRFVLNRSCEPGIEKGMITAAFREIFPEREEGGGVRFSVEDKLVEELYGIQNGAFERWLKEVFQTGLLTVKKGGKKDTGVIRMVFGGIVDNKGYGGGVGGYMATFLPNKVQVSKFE
Kind of assay: FRET or BRET; FRET-FLIM in nuclei of transiently transformed N. benthamiana epidermal leaf cells; OBE3-mGFP donor, mCherry fusions as acceptor; donor lifetime measured.

Assay [3] has as its target T3, SMXL5-3xHA (Arabidopsis thaliana) (UniProt Q9LU73).
T3 sequence: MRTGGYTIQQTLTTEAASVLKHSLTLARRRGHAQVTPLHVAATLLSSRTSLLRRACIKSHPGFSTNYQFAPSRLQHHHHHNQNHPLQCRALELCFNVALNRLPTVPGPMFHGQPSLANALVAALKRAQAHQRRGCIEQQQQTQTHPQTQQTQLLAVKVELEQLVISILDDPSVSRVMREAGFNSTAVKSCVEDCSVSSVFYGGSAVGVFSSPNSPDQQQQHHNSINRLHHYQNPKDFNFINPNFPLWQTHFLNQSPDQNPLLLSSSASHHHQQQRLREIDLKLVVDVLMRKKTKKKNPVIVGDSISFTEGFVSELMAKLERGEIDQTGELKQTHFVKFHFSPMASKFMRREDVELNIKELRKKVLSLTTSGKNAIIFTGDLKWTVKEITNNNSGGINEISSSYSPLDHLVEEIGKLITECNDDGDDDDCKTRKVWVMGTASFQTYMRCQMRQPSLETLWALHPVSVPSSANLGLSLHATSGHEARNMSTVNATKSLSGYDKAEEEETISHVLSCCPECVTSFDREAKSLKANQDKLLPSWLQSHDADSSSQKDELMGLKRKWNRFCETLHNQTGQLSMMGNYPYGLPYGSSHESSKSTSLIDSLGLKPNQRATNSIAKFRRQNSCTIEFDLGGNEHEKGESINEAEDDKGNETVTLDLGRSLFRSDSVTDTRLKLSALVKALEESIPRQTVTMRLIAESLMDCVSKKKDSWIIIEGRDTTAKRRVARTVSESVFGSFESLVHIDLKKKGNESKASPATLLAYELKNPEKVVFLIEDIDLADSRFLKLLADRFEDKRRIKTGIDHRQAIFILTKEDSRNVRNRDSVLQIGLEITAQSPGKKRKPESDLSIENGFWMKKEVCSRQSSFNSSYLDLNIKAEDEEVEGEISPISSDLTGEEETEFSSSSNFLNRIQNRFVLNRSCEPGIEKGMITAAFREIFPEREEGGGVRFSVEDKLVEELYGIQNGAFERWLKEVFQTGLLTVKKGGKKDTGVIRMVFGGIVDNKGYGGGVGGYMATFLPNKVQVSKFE
Description: co-IP; protein extracts of N. benthamiana leaves transiently co-expressing both proteins (35S promoter); Anti-HA MicroBeads, 2.5 h at 4 °C; western blot with anti-HA and anti-Myc. For orientation: In western blotting, separated proteins are transferred to a membrane and probed.

B1: OBE2 protein tested with SMXL5 in yeast cells in independent experiments (protein, UniProt Q9LUB7 1-574)
chain: MGTSSGSNHPHQMLPPRQQQRSGGGLETALSLVSSDQEPRRESPAESASSQETWPLGDTVAGKKSMSQKTEPDSMEQTVNVMHHVSNADKVSVRDIARERVELVAERMHRLPDEFLDELKNGLKSILEGNVAQSVDEFMFLQKVVQSRTDLSSVTLVRAHRVQLEILVAINTGIQAFLHPNISLSQPSLIEIFVYKRCRNIACQNQLPADDCYCDICTNRKGFCNLCMCTICNKFDFSVNTCRWIGCDLCSHWTHTDCAIRDGQITTGSSAKNNTSGPGEIVFKCRACNRTSELLGWVKDVFQHCAPNWDRESLMKELDFVSRIFRGSEDQRGRKLFWKCEELIDKIKGGLAEATAAKLILMFFQEIESDSAKSFENGEGGRLMAPQDACNRIAEVVQETLRKMEIVAEEKMRMFKKARMALETCDRELEDKAKEVSELKAERQKKKLQIDELERIVRLKQAEADMFQLKANEAKREADRLQRIVLAKMDKSEEEYASNYLKQRLSEAEAEKQYLFEKIKLQENSRVASQSSGGGGDPSQVMMYSKIRDLLQGYNLSPKVDPQLNERNPFRSNP
In the case of B1, the binding entry in assay [1] is on record as “binds”.

B2: GAL4AD-OBE3 fusion protein (protein, UniProt Q94B71 1-733)
chain: MIGEKDLAGDGECSRTKTSKPRFSNLNNQTHQDDKTGQYHQKGVDFLNVRSNNLDGGFSSKSSPRSGNELTLSYLCENSGKLAESLGQKGKEVVTFSENSSYDDKWVERDFFNLREMNPNSSKRKAHEEEEEAEEEEDKKSNKIETLNLSLALPDVSLSLTASNAVKRPRVVTSERTTTSFSNDFTATAPSMSYSYSHPFSHNISCSMTRNSTDFDCSVGKDDHIWCAGEGTNGSVHSRFRPIGDGGVALANNPVSGKPSSSADYSFFPSELPARPGNEVTISGDSRKKVANLEDNDAVRSERVLYDIVSKSISSVALIIQGMADETLESAKEYLRNLIDSPEKKEKLVNLQNQIDKRSDLSKETLSKCVKDQLDILVAVRTGLKYFLSGKIRIPMNELVEIFLFLRCRNVNCKSLLPVDDCECKICSNNKGFCSSCMCPVCLRFDSASNTCSWVGCDVCSHWCHAACGIQKNLIKPGHSLKGQRGTTEMMFHCIGCAHKSEMFGFVKDVFVCCAKNWGLETLIKELDCVRKVFRGSDDAKGKALHLKANEMVKKLESKQISPLDASNFIIQFFNYAESIPEIPDPPRELTVAAETSYRKDEASVTPSTSKDQKKKSFALTDAMMNSFDSLESMVRIKEAETRMFQKKADEARIEAESFKRMIEMKTEKMEEEYTEKLARLCLQETEERRRNKLEELKKLENSHCDYRNMKLRMEAEIAGLLKRMEVTRQQLV
In the case of B2, the binding entry in assay [1] is listed as “binds”.

B3: OBE3-mGFP (protein, UniProt Q94B71 1-733)
chain: MIGEKDLAGDGECSRTKTSKPRFSNLNNQTHQDDKTGQYHQKGVDFLNVRSNNLDGGFSSKSSPRSGNELTLSYLCENSGKLAESLGQKGKEVVTFSENSSYDDKWVERDFFNLREMNPNSSKRKAHEEEEEAEEEEDKKSNKIETLNLSLALPDVSLSLTASNAVKRPRVVTSERTTTSFSNDFTATAPSMSYSYSHPFSHNISCSMTRNSTDFDCSVGKDDHIWCAGEGTNGSVHSRFRPIGDGGVALANNPVSGKPSSSADYSFFPSELPARPGNEVTISGDSRKKVANLEDNDAVRSERVLYDIVSKSISSVALIIQGMADETLESAKEYLRNLIDSPEKKEKLVNLQNQIDKRSDLSKETLSKCVKDQLDILVAVRTGLKYFLSGKIRIPMNELVEIFLFLRCRNVNCKSLLPVDDCECKICSNNKGFCSSCMCPVCLRFDSASNTCSWVGCDVCSHWCHAACGIQKNLIKPGHSLKGQRGTTEMMFHCIGCAHKSEMFGFVKDVFVCCAKNWGLETLIKELDCVRKVFRGSDDAKGKALHLKANEMVKKLESKQISPLDASNFIIQFFNYAESIPEIPDPPRELTVAAETSYRKDEASVTPSTSKDQKKKSFALTDAMMNSFDSLESMVRIKEAETRMFQKKADEARIEAESFKRMIEMKTEKMEEEYTEKLARLCLQETEERRRNKLEELKKLENSHCDYRNMKLRMEAEIAGLLKRMEVTRQQLV
With B3, the binding result in assay [2] was “binds”.

B4: 6xMyc-OBE3 (protein, UniProt Q94B71 1-733)
chain: MIGEKDLAGDGECSRTKTSKPRFSNLNNQTHQDDKTGQYHQKGVDFLNVRSNNLDGGFSSKSSPRSGNELTLSYLCENSGKLAESLGQKGKEVVTFSENSSYDDKWVERDFFNLREMNPNSSKRKAHEEEEEAEEEEDKKSNKIETLNLSLALPDVSLSLTASNAVKRPRVVTSERTTTSFSNDFTATAPSMSYSYSHPFSHNISCSMTRNSTDFDCSVGKDDHIWCAGEGTNGSVHSRFRPIGDGGVALANNPVSGKPSSSADYSFFPSELPARPGNEVTISGDSRKKVANLEDNDAVRSERVLYDIVSKSISSVALIIQGMADETLESAKEYLRNLIDSPEKKEKLVNLQNQIDKRSDLSKETLSKCVKDQLDILVAVRTGLKYFLSGKIRIPMNELVEIFLFLRCRNVNCKSLLPVDDCECKICSNNKGFCSSCMCPVCLRFDSASNTCSWVGCDVCSHWCHAACGIQKNLIKPGHSLKGQRGTTEMMFHCIGCAHKSEMFGFVKDVFVCCAKNWGLETLIKELDCVRKVFRGSDDAKGKALHLKANEMVKKLESKQISPLDASNFIIQFFNYAESIPEIPDPPRELTVAAETSYRKDEASVTPSTSKDQKKKSFALTDAMMNSFDSLESMVRIKEAETRMFQKKADEARIEAESFKRMIEMKTEKMEEEYTEKLARLCLQETEERRRNKLEELKKLENSHCDYRNMKLRMEAEIAGLLKRMEVTRQQLV
Consider B4, for which, in assay [3], the binding entry is listed as “binds”.

The values above are taken from PMC10104830.
